This note sets out measurements from PMC4632003.

Results are given in words; binding and its absence hold for the method and conditions named. Binding seen in cells or lysates may run through a third protein. Binding calls can cover weak binding; strength is not graded here.

The target of test [1] is T1, Mitofilin (human (endogenous in HeLa)) (UniProt Q16891).
T1 sequence: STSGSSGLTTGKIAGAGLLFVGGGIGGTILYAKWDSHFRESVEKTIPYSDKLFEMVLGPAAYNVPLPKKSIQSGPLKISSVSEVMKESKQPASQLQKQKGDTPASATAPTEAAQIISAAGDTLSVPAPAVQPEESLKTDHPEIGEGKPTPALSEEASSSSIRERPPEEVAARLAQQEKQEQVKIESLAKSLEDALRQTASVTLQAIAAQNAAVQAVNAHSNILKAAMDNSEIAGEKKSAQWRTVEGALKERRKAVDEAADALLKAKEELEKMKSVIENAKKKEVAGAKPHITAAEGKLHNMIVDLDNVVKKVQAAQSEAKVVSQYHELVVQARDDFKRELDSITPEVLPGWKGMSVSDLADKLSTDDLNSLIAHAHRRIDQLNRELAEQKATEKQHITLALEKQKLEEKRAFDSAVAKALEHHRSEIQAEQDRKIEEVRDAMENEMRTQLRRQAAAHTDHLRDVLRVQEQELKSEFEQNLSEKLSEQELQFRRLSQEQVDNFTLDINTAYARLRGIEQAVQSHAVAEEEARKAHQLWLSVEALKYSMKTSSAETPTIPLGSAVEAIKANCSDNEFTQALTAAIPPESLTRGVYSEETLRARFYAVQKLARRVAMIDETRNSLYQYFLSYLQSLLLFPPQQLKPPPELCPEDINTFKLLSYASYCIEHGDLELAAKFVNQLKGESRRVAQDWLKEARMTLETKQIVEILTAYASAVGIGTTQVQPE
The experiment in a line: co-IP; IP of endogenous Mitofilin or CHCHD6 from HeLa lysate (control cells; Mitofilin IP also from CHCHD6-knockout cells) with antibody crosslinked to protein A Sepharose beads, overnight at 4 °C, washed with cold PBS; immunoblot.

The target in test [2] is T2, CHCHD6 (human (endogenous in HeLa)) (UniProt Q9BRQ6).
T2 sequence: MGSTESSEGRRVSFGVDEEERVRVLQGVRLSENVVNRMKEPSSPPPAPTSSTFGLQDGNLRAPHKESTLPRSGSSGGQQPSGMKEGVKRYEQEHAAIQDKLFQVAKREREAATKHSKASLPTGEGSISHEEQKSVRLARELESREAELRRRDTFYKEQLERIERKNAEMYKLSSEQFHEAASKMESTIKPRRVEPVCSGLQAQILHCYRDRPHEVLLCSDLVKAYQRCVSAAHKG
The description is as above.

Turning to “OPA1, long form (human (endogenous in HeLa))”, the binding entry in test [1] and in test [2] was “no binding” throughout.
For “OPA1, soluble form (human (endogenous in HeLa))”, the binding entry in test [1] and in test [2] was “binds” in each case.
